The results in this text go back to paper PMC8137473, “Preclinical trial of a MAP4K4 inhibitor to reduce infarct size in the pig: does cardioprotection in human stem cell-derived myocytes predict success in large mammals?” (Basic Research in Cardiology, 2021).

This data set deals with porcine model of MI. Nature of the data set: efficacy study: convertible ventricular fibrillation and defibrillation. It is filed as in vivo, swine. On the procedure:
Investigators involved in the experimental protocol and analysis of the data were blinded to the treatment status of each pig. Animals were randomly assigned to the treatment groups in two blocks, using a random number series generated online. To control further for potential investigator bias, inclusion and exclusion criteria were formulated prior to the onset of the study. Only healthy pigs weighing 38–48 kg, with a body temperature between 37.0 and 40.0 °C at the start of surgical preparation, were included. Exclusion criteria were: (i) Encountering ventricular fibrillation (VF) during the experimental protocol that could not be converted to sinus rhythm within 2 min. (ii) Encountering VF > 4 times before starting the drug or vehicle infusion. (iii) Developing progressive pump failure (mean arterial pressure (MAP) < 30 mmHg) during first 30 min of reperfusion. (iv) Incomplete coronary artery occlusion (CAO) at the end of occlusion, verified by contrast dye injection. (v) Aberrant anatomy, producing technical difficulties that prevented successful catheterization. (vi) AAR < 15% of the LV. […] This was not foreseen in the initial design of the exclusion criteria and was not then an exclusion criterion. However, in view of the risk of preconditioning the heart during this episode of VF, we chose to stop the procedure and add the further criterion “Encountering VF prior to the onset of the ischemia–reperfusion protocol.” Following any exclusions as above, modifications were made where necessary to ensure that the two treatment groups remained appropriately balanced for sex and weight. […]
The LAD was catheterized with a standard clinical guiding catheter (JL3.5, 6F, Medtronic, Minneapolis, MN), and quantitative coronary angiography (CAAS, PIE Medical, Maastricht, The Netherlands) was performed following 2 mg isosorbidedinitrate (Cedocard, Nycomed, Hoofddorp, The Netherlands) and using iodixanol as contrast agent (Visipaque™, GE Healthcare BV, Eindhoven, The Netherlands). […] Heart rate, aortic blood pressure, and ECG were monitored until 2 h of reperfusion.

On to `COCCOc1ccc(-c2cn(-c3ccccc3)c3ncn(COP(=O)(O)O)c(=O)c23)cc1` [DMX-10001], for which, for the setting “Occlusion 0-40 min”, the “Convertible VF, No. of defibrillation shocks” value turned out to be 3.1 ± 1.6 and the “Convertible VF, No. of episodes” value turned out to be 1.0 ± 0.0. Moreover, the “time within which sinus rhythm was restored” value (VF during CAO, prior to treatment) was 69 ± 34 s.
